For at least one compound, name, drawing or mass did not settle the structure.
Tested on: Lck+ Jurkat T cells (JE6-1)
Test: Conjugate formation: recruitment of IBP and PKC-θ to the immunological synapse
Type: cell-based, human
Conditions: T cells pretreated with 100 nM wortmannin 30 min, then SEE-pulsed Raji APCs; confocal microscopy

**Q.** What does the source list for `COC[C@H]1OC(=O)c2coc3c2[C@@]1(C)C1=C(C3=O)[C@@H]2CCC(=O)[C@@]2(C)C[C@H]1OC(C)=O` [wortmannin]?
**A.** recruitment of IBP to the IS: inhibited; recruitment of PKC-θ to the IS: inhibited

— patent publication US20060019915A1, “Method to modulate the immune system with a novel guanine nucleotide exchange factor” (priority 2004, published 2006)
